PubChem BioAssay AID1508597, Cure First | 2020
Test: 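Survival screen with siRNA in ovarian cancer cells derived from patients, with or without rucaparib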 (primary screen). Cell system: human ovarian carcinoma lines grown from tumours: OCI-P5x (papillary serous) and OCI-C5x (clear cell). Reagents: siRNA pool against human genes, 1.25 pmol siRNA per well. Time to read-out: 72 h or 96 h, depending on the cell culture. Challenge: rucaparib 20 µM (about IC30) or vehicle, present until read-out. Rucaparib or vehicle: Rucaparib. Cell line: OCI-C5x (clear cell). Detection: 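ATP luminescence measured at 72 or 96 h according to the culture, then normalised and expressed as percent viability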. Direction: viability, normalised: higher = more viable cells remaining. Active means: 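a well counts as a hit if its normalised viability is under 80 percent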. Meaning of the calls: active = viability under 80%; inactive = viability 80% or more.
Shown is an unselected part of the about 2,100 reagents, in one setting of the screen. 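Calls flag viability under 80% in either arm, not effects specific to rucaparib; the reference for percent is not stated.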 No sequences are given here. Not given: the 100% reference.

target gene	technical replicate	viability, normalised (%)	Call
MERTK (MER proto-oncogene, tyrosine kinase)	1	45.9	active
MERTK (MER proto-oncogene, tyrosine kinase)	2	51.8	active
MERTK (MER proto-oncogene, tyrosine kinase)	3	37.5	active
BCKDK (branched chain keto acid dehydrogenase kinase)	1	45.6	active
BCKDK (branched chain keto acid dehydrogenase kinase)	2	54.2	active
BCKDK (branched chain keto acid dehydrogenase kinase)	3	54.1	active
PDXK (pyridoxal kinase)	1	55.8	active
PDXK (pyridoxal kinase)	2	54.1	active
PDXK (pyridoxal kinase)	3	55.8	active
QPCT (glutaminyl-peptide cyclotransferase)	1	71.7	active
QPCT (glutaminyl-peptide cyclotransferase)	2	65.5	active
QPCT (glutaminyl-peptide cyclotransferase)	3	47.8	active
TTF2 (transcription termination factor 2)	1	68.7	active
TTF2 (transcription termination factor 2)	2	57.9	active
TTF2 (transcription termination factor 2)	3	51.4	active
PHKG1 (phosphorylase kinase catalytic subunit gamma 1)	1	52.6	active
PHKG1 (phosphorylase kinase catalytic subunit gamma 1)	2	42.1	active
PHKG1 (phosphorylase kinase catalytic subunit gamma 1)	3	51	active
TF (transferrin)	1	83.7	inactive
TF (transferrin)	2	84.6	inactive
TF (transferrin)	3	82.9	inactive
SBK1 (SH3 domain binding kinase 1)	1	45.3	active
SBK1 (SH3 domain binding kinase 1)	2	57.5	active
SBK1 (SH3 domain binding kinase 1)	3	63.2	active
FANCE (FA complementation group E)	1	57.4	active
FANCE (FA complementation group E)	2	51.9	active
FANCE (FA complementation group E)	3	43.7	active
PCDHB3 (protocadherin beta 3)	1	42.3	active
PCDHB3 (protocadherin beta 3)	2	56.5	active
PCDHB3 (protocadherin beta 3)	3	48	active
RAD51C (RAD51 paralog C)	1	41.9	active
RAD51C (RAD51 paralog C)	2	52.4	active
RAD51C (RAD51 paralog C)	3	67.8	active
IPO8 (importin 8)	1	65.9	active
IPO8 (importin 8)	2	53.5	active
IPO8 (importin 8)	3	49.3	active
ZDHHC3 (zDHHC palmitoyltransferase 3)	1	57.5	active
ZDHHC3 (zDHHC palmitoyltransferase 3)	2	57.8	active
ZDHHC3 (zDHHC palmitoyltransferase 3)	3	37.3	active
PLK3 (polo like kinase 3)	1	75.9	active
PLK3 (polo like kinase 3)	2	77.5	active
PLK3 (polo like kinase 3)	3	51.5	active
DCLK3 (doublecortin like kinase 3)	1	72.4	active
DCLK3 (doublecortin like kinase 3)	2	63.4	active
DCLK3 (doublecortin like kinase 3)	3	48.5	active
ID4 (inhibitor of DNA binding 4)	1	44.7	active
ID4 (inhibitor of DNA binding 4)	2	41.3	active
ID4 (inhibitor of DNA binding 4)	3	53.7	active
BRD7 (bromodomain containing 7)	1	68.9	active
BRD7 (bromodomain containing 7)	2	49.1	active
BRD7 (bromodomain containing 7)	3	41.4	active
TFAM (transcription factor A, mitochondrial)	1	68	active
TFAM (transcription factor A, mitochondrial)	2	44.5	active
TFAM (transcription factor A, mitochondrial)	3	68	active
CDK4 (cyclin dependent kinase 4)	1	48.3	active
CDK4 (cyclin dependent kinase 4)	2	42.1	active
CDK4 (cyclin dependent kinase 4)	3	50.1	active

Ordered by “viability, normalised (%)” (highest first): some entries from above.
target gene	technical replicate	viability, normalised (%)	Call
QPCT (glutaminyl-peptide cyclotransferase)	1	71.7	active
TTF2 (transcription termination factor 2)	1	68.7	active
QPCT (glutaminyl-peptide cyclotransferase)	2	65.5	active
TTF2 (transcription termination factor 2)	2	57.9	active
PHKG1 (phosphorylase kinase catalytic subunit gamma 1)	1	52.6	active
TTF2 (transcription termination factor 2)	3	51.4	active
QPCT (glutaminyl-peptide cyclotransferase)	3	47.8	active
